According to the supplement of paper PMC10849652:
The list shows a part of the results.

Amino acid sequences for entries named in this document (tags omitted). A change or cut given only in a name is not applied to a line headed by its entry.
UniProt Q9NQC3: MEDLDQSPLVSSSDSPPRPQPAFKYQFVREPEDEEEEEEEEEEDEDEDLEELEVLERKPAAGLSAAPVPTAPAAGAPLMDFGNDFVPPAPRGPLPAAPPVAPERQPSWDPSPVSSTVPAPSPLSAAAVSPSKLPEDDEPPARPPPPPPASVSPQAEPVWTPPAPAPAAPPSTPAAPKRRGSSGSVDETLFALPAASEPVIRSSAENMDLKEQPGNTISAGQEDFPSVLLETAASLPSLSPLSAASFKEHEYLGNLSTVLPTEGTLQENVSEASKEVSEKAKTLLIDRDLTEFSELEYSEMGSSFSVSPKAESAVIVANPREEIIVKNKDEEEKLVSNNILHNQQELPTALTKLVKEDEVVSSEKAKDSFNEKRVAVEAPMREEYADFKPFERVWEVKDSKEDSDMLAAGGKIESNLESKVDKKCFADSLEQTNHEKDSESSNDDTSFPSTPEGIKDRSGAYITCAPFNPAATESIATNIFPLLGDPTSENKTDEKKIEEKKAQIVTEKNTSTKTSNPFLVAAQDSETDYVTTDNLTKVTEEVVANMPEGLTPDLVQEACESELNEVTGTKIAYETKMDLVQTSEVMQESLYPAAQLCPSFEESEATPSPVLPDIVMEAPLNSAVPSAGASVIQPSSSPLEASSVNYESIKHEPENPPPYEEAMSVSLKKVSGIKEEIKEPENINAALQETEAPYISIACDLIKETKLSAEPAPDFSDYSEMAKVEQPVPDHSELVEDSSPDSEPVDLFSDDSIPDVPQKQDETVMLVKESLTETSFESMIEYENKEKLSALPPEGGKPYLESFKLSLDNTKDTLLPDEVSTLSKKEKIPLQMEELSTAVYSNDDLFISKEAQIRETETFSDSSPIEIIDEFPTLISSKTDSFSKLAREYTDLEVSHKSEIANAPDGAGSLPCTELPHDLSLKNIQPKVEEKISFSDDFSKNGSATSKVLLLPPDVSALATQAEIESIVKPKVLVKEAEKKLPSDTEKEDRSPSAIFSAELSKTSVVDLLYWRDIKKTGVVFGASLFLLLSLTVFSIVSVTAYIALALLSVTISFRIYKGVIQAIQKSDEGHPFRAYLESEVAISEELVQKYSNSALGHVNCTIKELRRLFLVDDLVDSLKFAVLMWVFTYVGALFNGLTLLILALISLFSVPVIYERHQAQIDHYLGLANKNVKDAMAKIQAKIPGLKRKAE
UniProt P04844: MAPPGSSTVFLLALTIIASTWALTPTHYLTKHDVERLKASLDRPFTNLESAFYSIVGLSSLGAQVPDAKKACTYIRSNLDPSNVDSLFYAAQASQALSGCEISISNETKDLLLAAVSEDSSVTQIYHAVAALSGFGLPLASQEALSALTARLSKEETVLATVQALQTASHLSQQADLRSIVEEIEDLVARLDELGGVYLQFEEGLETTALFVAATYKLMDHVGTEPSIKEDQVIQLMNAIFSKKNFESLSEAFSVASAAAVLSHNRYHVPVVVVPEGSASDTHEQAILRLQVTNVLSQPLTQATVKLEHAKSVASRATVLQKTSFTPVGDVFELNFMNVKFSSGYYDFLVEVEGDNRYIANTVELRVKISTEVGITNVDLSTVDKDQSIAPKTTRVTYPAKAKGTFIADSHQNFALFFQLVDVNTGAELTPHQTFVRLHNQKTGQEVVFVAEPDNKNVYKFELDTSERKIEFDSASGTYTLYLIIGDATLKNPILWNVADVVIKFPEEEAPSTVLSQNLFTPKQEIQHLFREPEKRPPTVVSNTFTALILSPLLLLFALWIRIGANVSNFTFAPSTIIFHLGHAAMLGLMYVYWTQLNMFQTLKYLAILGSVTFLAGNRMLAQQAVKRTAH
UniProt Q96DX4: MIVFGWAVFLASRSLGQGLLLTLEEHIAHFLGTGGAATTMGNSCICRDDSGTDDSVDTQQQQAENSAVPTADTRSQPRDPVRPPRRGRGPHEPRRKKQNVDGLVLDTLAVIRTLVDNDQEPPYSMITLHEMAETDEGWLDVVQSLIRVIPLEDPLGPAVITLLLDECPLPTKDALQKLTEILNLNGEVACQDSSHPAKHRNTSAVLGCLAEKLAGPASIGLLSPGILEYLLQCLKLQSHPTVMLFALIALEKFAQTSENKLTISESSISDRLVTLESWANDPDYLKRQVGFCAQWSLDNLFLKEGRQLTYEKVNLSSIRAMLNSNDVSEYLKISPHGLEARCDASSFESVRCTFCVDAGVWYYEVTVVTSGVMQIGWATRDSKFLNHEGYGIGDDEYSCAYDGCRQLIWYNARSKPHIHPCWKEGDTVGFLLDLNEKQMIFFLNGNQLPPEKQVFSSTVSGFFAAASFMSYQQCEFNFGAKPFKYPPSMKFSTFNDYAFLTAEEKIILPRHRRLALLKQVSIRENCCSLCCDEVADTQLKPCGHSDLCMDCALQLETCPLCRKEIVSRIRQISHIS
UniProt Q9Y230, whole entry, looked up: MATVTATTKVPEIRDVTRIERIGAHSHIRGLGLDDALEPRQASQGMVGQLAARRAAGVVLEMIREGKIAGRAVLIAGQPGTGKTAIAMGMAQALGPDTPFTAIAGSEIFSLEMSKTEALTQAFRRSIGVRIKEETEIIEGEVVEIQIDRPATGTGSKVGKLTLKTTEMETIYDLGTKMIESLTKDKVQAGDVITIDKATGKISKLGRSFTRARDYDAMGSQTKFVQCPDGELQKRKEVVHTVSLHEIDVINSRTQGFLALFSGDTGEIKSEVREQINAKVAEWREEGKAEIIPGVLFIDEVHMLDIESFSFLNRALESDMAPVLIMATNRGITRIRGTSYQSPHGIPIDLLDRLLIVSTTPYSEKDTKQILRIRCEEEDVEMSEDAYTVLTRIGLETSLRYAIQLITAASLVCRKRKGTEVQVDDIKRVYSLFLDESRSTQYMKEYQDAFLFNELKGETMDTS
UniProt Q15418, whole entry, looked up: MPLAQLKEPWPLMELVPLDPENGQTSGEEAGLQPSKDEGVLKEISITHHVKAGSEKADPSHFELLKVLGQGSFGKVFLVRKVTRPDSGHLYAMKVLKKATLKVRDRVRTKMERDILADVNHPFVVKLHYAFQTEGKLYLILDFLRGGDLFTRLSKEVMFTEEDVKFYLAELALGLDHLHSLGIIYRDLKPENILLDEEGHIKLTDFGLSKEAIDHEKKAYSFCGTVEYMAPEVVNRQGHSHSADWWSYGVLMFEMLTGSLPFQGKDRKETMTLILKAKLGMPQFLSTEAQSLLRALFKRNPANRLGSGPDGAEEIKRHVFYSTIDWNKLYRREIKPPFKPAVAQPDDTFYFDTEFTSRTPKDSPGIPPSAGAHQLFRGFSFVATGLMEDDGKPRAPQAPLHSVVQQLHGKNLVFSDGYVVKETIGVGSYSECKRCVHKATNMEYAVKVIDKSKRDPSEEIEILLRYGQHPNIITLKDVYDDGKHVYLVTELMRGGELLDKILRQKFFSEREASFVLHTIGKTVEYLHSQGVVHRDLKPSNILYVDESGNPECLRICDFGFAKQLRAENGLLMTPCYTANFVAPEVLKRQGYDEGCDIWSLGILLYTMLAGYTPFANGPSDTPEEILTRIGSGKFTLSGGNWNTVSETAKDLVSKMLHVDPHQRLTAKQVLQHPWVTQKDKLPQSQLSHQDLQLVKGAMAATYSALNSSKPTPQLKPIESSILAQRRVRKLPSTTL
UniProt P31949: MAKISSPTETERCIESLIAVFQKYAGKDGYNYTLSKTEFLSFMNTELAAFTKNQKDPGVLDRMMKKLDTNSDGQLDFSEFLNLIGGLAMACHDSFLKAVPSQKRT
UniProt O00442: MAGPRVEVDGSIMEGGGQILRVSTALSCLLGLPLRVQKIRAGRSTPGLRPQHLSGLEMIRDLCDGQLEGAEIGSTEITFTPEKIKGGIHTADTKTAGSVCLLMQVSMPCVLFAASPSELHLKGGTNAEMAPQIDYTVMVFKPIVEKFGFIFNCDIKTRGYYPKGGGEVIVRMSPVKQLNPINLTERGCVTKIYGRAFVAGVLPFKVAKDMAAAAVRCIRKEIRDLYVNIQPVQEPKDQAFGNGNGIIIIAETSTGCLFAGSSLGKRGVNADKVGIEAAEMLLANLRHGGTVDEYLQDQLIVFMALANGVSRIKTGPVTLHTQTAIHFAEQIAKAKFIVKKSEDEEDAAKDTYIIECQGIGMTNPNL
UniProt Q9H446: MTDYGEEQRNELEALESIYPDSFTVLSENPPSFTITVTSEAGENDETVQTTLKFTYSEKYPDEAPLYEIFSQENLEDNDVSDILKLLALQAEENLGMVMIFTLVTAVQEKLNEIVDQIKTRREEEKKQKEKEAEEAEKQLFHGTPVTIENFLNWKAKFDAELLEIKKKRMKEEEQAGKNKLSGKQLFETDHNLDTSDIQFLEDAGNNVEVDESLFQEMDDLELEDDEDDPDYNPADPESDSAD
UniProt Q9Y3I0: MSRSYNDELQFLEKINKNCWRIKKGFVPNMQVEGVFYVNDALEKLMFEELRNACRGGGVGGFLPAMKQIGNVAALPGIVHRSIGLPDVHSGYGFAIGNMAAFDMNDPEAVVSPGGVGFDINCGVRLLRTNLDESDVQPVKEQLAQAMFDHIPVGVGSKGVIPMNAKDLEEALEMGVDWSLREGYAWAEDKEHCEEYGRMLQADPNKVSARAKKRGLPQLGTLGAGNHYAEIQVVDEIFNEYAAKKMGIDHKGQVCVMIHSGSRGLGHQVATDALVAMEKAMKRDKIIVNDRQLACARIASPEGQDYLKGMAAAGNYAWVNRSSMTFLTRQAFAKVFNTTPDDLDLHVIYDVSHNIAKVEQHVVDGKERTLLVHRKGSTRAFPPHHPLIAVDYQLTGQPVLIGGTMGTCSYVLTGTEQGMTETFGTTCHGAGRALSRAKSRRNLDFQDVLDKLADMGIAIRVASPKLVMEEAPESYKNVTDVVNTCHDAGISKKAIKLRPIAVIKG
UniProt Q7LG56, whole entry, looked up: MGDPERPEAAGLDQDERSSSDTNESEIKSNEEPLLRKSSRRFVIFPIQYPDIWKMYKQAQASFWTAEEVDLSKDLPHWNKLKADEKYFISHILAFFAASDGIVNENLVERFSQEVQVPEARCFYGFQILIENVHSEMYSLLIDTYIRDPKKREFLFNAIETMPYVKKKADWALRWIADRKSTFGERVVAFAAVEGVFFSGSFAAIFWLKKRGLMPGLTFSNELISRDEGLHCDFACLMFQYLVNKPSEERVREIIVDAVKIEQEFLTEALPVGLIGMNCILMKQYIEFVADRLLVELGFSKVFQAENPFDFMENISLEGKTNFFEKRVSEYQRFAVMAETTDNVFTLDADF

Tests used:
Test in all cases: log2 fold change, soluble protein after heating vs DMSO (PISA); higher = thermal stabilisation; K562 lysate, 10 uM; active = over 0.2 and 3.5 SD of the protein, either way, in both replicates (recomputed)
[1] = compound: CN1CC[C@H](c2c(O)cc(O)c3c(=O)cc(-c4ccccc4Cl)oc23)[C@H](O)C1 [alvocidib]
Summary of the method: (§1)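 Log-two fold change in thermal stability relative to solvent controls is reported from duplicates. For each sample, crude K562 extract from dounce-homogenised pellets in PBS pH 7.4 with 1 mM MgCl2, at 1 mg/mL protein, was treated with 10 μM compound for 30 min. Aliquots heated for 3 min across 48°C-58°C were pooled, brought to 0.5% NP-40 at 4°C and cleared at 21,000xg for 90 min. The supernatant was quantified by TMTpro 16plex LC-MS/MS with channel sums equalised.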

[2] = compound: CN1CCc2c(c3ccccc3n2Cc2ccc(C(=O)NO)cc2)C1 [Tubastatin A]
Summary of the method: as §1

[3] = compound: CNC(=O)C1=CC=CC=C1NC2=NC(=NC=C2Cl)NC3=C(C=C(C=C3)N4CCOCC4)OC
Summary of the method: as §1

[4] = compound: CNC(=O)c1ccc(Nc2ncc(C(F)(F)F)c(NCc3nccnc3N(C)S(C)(=O)=O)n2)cc1 [defactinib]
Summary of the method: as §1

[5] = compound: CNc1nc(-c2ccc3c(N)n[nH]c3c2)cc(N2C[C@@H](C(=O)NC3CCCCC3)CC[C@H]2C)n1
Summary of the method: as §1

[6] = compound: COC(=O)N[C@@H](C)CNc1nccc(-c2cn(C(C)C)nc2-c2cc(Cl)cc(NS(C)(=O)=O)c2F)n1 [encorafenib]
Summary of the method: as §1

[7] = compound: COC(=O)[C@H](CCSC)NC(=O)C1=C(C=C(C=C1)NC[C@H](CS)N)C2=CC=CC=C2
Summary of the method: as §1

[8] = compound: COc1cc(Nc2ncc3c(n2)-c2ccc(Cl)cc2C(c2c(F)cccc2OC)=NC3)ccc1C(=O)O [alisertib]
Summary of the method: as §1

[9] = compound: COc1cc2nc(-c3cc(F)ccc3O)nc(N[C@@H]3CNC[C@H]3C(C)(C)O)c2cc1OC
Summary of the method: as §1

[10] = compound: COc1cc2ncnc(Nc3ccc(F)c(Cl)c3)c2cc1OCCCN1CCOCC1 [gefitinib]
Summary of the method: as §1

[11] = compound: CS(=O)(=O)CCNCc1ccc(-c2ccc3ncnc(Nc4ccc(OCc5cccc(F)c5)c(Cl)c4)c3c2)o1 [lapatinib]
Summary of the method: as §1

[12] = compound: CS(=O)(=O)N1CCN(Cc2cc3nc(-c4cccc5[nH]ncc45)nc(N4CCOCC4)c3s2)CC1 [pictilisib]
Summary of the method: as §1

[13] = compound: C[C@@H](Oc1cc(-c2cnn(C3CCNCC3)c2)cnc1N)c1c(Cl)ccc(F)c1Cl [crizotinib]
Summary of the method: as §1

[14] = compound: C[C@H](C1=CC=C(C=C1)C(=O)NC2=C3C=CNC3=NC=C2)N
Summary of the method: as §1

[15] = compound: C[C@H](Nc1ncnc2nc[nH]c12)c1cc2cccc(Cl)c2c(=O)n1-c1ccccc1 [duvelisib]
Summary of the method: as §1

[16] = compound: Cc1cc(Nc2cc(CN3CCOCC3)c3nc(C)c(Cc4ccc(Cl)cc4F)n3n2)n[nH]1 [gandotinib]
Summary of the method: as §1

[17] = compound: Cc1cc(Nc2cc(N3CCN(C)CC3)nc(Sc3ccc(NC(=O)C4CC4)cc3)n2)n[nH]1 [tozasertib]
Summary of the method: as §1

[18] = compound: Cc1ccc(-n2nc(C(C)(C)C)cc2NC(=O)Nc2ccc(OCCN3CCOCC3)c3ccccc23)cc1 [doramapimod]
Summary of the method: as §1

[19] = compound: Cc1ccc(NC(=O)c2ccc(CN3CC[C@H](N(C)C)C3)c(C(F)(F)F)c2)cc1Nc1nccc(-c2cncnc2)n1 [bafetinib]
Summary of the method: as §1

[20] = compound: Cc1cccc(CC(=O)N2CCc3c2ccc(-c2cn(C)c4ncnc(N)c24)c3F)n1
Summary of the method: as §1

Row | Target | log2 fold change [1] | log2 fold change [2] | log2 fold change [3] | log2 fold change [4] | log2 fold change [5] | log2 fold change [6] | log2 fold change [7] | log2 fold change [8] | log2 fold change [9] | log2 fold change [10] | log2 fold change [11] | log2 fold change [12] | log2 fold change [13] | log2 fold change [14] | log2 fold change [15] | log2 fold change [16] | log2 fold change [17] | log2 fold change [18] | log2 fold change [19] | log2 fold change [20]
1 | RTN4 isoform 2 (UniProt Q9NQC3) | inactive: 0.008 | inactive: 0.088 | inactive: -0.101 | inactive: 0.029 | inactive: 0.094 | inactive: 0.16 | inactive: -0.097 | inactive: -0.003 | inactive: -0.001 | inactive: 0.004 | inactive: -0.002 | inactive: 0.008 | inactive: -0.053 | inactive: 0.009 | inactive: -0.079 | inactive: 0.103 | inactive: 0.011 | inactive: -0.024 | inactive: -0.156 | inactive: 0.125
2 | RPL8 (UniProt P62917) | inactive: 0.007 | inactive: 0.023 | inactive: 0.02 | inactive: 0.038 | inactive: 0.104 | inactive: 0.022 | inactive: -0.046 | inactive: 0.018 | inactive: -0.008 | inactive: 0.011 | inactive: -0.005 | inactive: 0.01 | inactive: 0.059 | inactive: 0.147 | inactive: 0.008 | inactive: -0.072 | inactive: 0.033 | inactive: -0.038 | inactive: 0.071 | inactive: -0.051
3 | RPN2 (UniProt P04844) | inactive: -0.024 | inactive: 0.001 | inactive: -0.024 | inactive: -0.006 | inactive: -0.01 | inactive: 0.041 | inactive: -0.031 | inactive: -0.008 | inactive: -0.03 | inactive: 0.011 | inactive: -0.048 | inactive: -0.006 | inactive: -0.004 | inactive: -0.074 | inactive: -0.003 | inactive: 0.039 | inactive: -0.003 | inactive: 0 | inactive: -0.032 | inactive: 0.06
4 | RSPRY1 (UniProt Q96DX4) | inactive: -0.052 | inactive: 0.031 | inactive: -0.044 | inactive: -0.012 | inactive: 0.02 | inactive: -0.013 | inactive: -0.06 | inactive: -0.073 | inactive: 0.002 | inactive: 0.011 | inactive: -0.031 | inactive: -0.007 | inactive: -0.009 | inactive: -0.085 | inactive: 0.042 | inactive: 0.032 | inactive: -0.002 | inactive: -0.003 | inactive: -0.04 | inactive: 0.088
5 | RPS27L (UniProt Q71UM5) | inactive: 0.041 | inactive: -0.022 | inactive: 0.017 | inactive: 0.04 | inactive: 0.041 | inactive: 0.002 | inactive: 0.044 | inactive: 0.004 | inactive: 0.009 | inactive: -0.051 | inactive: -0.014 | inactive: -0.049 | inactive: -0.02 | inactive: 0 | inactive: 0.015 | inactive: -0.017 | inactive: -0.039 | inactive: 0.015 | inactive: -0.035 | inactive: -0.051
6 | RUVBL2 (UniProt Q9Y230) | inactive: 0.003 | inactive: 0.03 | inactive: -0.005 | inactive: -0.028 | inactive: -0.027 | inactive: -0.006 | inactive: -0.014 | inactive: -0.002 | inactive: 0.014 | inactive: -0.009 | inactive: -0.02 | inactive: -0.004 | inactive: 0.003 | inactive: -0.002 | inactive: 0.01 | inactive: -0.008 | inactive: -0.012 | inactive: -0.023 | inactive: 0.016 | inactive: -0.014
7 | RPS29 (UniProt P62273) | inactive: 0.23 | inactive: -0.052 | inactive: -0.029 | inactive: -0.027 | inactive: 0.081 | inactive: -0.062 | inactive: 0.151 | inactive: -0.278 | inactive: 0.032 | inactive: -0.138 | inactive: -0.024 | inactive: 0.03 | inactive: 0.054 | active: 0.793 | inactive: -0.02 | inactive: -0.202 | inactive: -0.128 | inactive: -0.105 | inactive: 0.205 | inactive: -0.315
8 | RPS17 (UniProt P08708) | inactive: 0.048 | inactive: 0.007 | inactive: -0.015 | inactive: 0.008 | inactive: 0.008 | inactive: 0.013 | inactive: -0.033 | inactive: 0.006 | inactive: 0.003 | inactive: -0.013 | inactive: -0.005 | inactive: 0.002 | inactive: 0.003 | inactive: 0.146 | inactive: 0.007 | inactive: -0.06 | inactive: -0.016 | inactive: -0.005 | inactive: 0.05 | inactive: -0.086
9 | RPS6KA1 (UniProt Q15418) | active: 0.447 | inactive: -0.194 | active: 0.758 | inactive: 0.236 | inactive: -0.007 | inactive: -0.121 | inactive: -0.002 | inactive: 0.012 | inactive: 0.165 | inactive: -0.007 | inactive: -0.067 | inactive: 0.08 | inactive: -0.043 | inactive: 0.007 | inactive: 0.008 | inactive: 0.05 | inactive: 0.165 | inactive: -0.039 | inactive: -0.135 | inactive: -0.172
10 | S100A11 (UniProt P31949) | inactive: 0.085 | inactive: 0.075 | inactive: 0.029 | inactive: 0.059 | inactive: -0.011 | inactive: -0.021 | inactive: 0.007 | inactive: 0.024 | inactive: -0.01 | inactive: -0.089 | inactive: 0.105 | inactive: 0.006 | inactive: 0.02 | inactive: 0.097 | inactive: 0.052 | inactive: -0.042 | inactive: -0.043 | inactive: 0.003 | inactive: -0.039 | inactive: -0.032
11 | RTCA (UniProt O00442) | inactive: 0.033 | inactive: 0.022 | inactive: 0.01 | inactive: -0.007 | inactive: 0.049 | inactive: 0.017 | inactive: 0.005 | inactive: -0.022 | inactive: 0.016 | inactive: -0.045 | inactive: 0.005 | inactive: 0.006 | inactive: -0.002 | inactive: -0.029 | inactive: 0.016 | inactive: 0.039 | inactive: -0.072 | inactive: -0.014 | inactive: -0.024 | inactive: -0.025
12 | RWDD1 (UniProt Q9H446) | inactive: 0.056 | inactive: 0.058 | inactive: -0.008 | inactive: 0.007 | inactive: 0.041 | inactive: -0.004 | inactive: -0.033 | inactive: -0.022 | inactive: -0.002 | inactive: 0.061 | inactive: 0.026 | inactive: 0.01 | inactive: 0.071 | inactive: 0.069 | inactive: 0.006 | inactive: -0.016 | inactive: 0.036 | inactive: -0.11 | inactive: -0.025 | inactive: -0.059
13 | RTCB (UniProt Q9Y3I0) | inactive: -0.003 | inactive: -0.041 | inactive: -0.022 | inactive: 0.01 | inactive: -0.051 | inactive: -0.035 | inactive: 0.057 | inactive: 0.008 | inactive: -0.009 | inactive: 0.008 | inactive: -0.007 | inactive: 0.017 | inactive: 0.018 | inactive: -0.019 | inactive: 0.009 | inactive: -0.022 | inactive: 0.017 | inactive: 0.028 | inactive: -0.044 | inactive: -0.03
14 | RRM2B isoform 6 (UniProt Q7LG56) | inactive: 0.001 | inactive: 0.055 | inactive: 0.036 | inactive: -0.002 | inactive: 0.038 | inactive: 0.008 | inactive: -0.047 | inactive: 0.021 | inactive: 0.001 | inactive: -0.008 | inactive: 0.015 | inactive: -0.004 | inactive: 0.017 | inactive: -0.041 | inactive: -0.001 | inactive: 0.078 | inactive: 0.023 | inactive: 0.007 | inactive: 0.003 | inactive: 0.006
15 | RPS13 (UniProt P62277) | inactive: 0.041 | inactive: 0.018 | inactive: -0.031 | inactive: 0.018 | inactive: -0.024 | inactive: -0.04 | inactive: 0.058 | inactive: 0.01 | inactive: -0.014 | inactive: -0.029 | inactive: -0.01 | inactive: 0.012 | inactive: 0 | inactive: 0.123 | inactive: 0.011 | inactive: -0.083 | inactive: 0.061 | inactive: -0.024 | inactive: 0.017 | inactive: -0.086
16 | RPL4 (UniProt P36578) | inactive: 0.019 | inactive: 0.002 | inactive: -0.014 | inactive: 0.038 | inactive: 0.009 | inactive: 0.01 | inactive: -0.005 | inactive: -0.001 | inactive: -0.003 | inactive: -0.042 | inactive: -0.01 | inactive: 0.024 | inactive: 0.039 | inactive: 0.12 | inactive: 0.02 | inactive: -0.045 | inactive: -0.036 | inactive: -0.031 | inactive: 0.013 | inactive: -0.048

Some of the entries above in another layout:
Row	Target	log2 fold change [1]	log2 fold change [2]	log2 fold change [3]	log2 fold change [4]	log2 fold change [5]	log2 fold change [6]	log2 fold change [7]	log2 fold change [8]	log2 fold change [9]	log2 fold change [10]	log2 fold change [11]	log2 fold change [12]	log2 fold change [13]	log2 fold change [14]	log2 fold change [15]	log2 fold change [16]	log2 fold change [17]	log2 fold change [18]	log2 fold change [19]	log2 fold change [20]
11	RTCA (UniProt O00442)	inactive: 0.033	inactive: 0.022	inactive: 0.01	inactive: -0.007	inactive: 0.049	inactive: 0.017	inactive: 0.005	inactive: -0.022	inactive: 0.016	inactive: -0.045	inactive: 0.005	inactive: 0.006	inactive: -0.002	inactive: -0.029	inactive: 0.016	inactive: 0.039	inactive: -0.072	inactive: -0.014	inactive: -0.024	inactive: -0.025
12	RWDD1 (UniProt Q9H446)	inactive: 0.056	inactive: 0.058	inactive: -0.008	inactive: 0.007	inactive: 0.041	inactive: -0.004	inactive: -0.033	inactive: -0.022	inactive: -0.002	inactive: 0.061	inactive: 0.026	inactive: 0.01	inactive: 0.071	inactive: 0.069	inactive: 0.006	inactive: -0.016	inactive: 0.036	inactive: -0.11	inactive: -0.025	inactive: -0.059
